Experiments:
DS male mice [1] = experiment: Anti-pentylenetetrazol activity; conditions: for times more potent than diazepam, anti-pentylenetetrazol activity: relative to diazepam (Compound No. 5)
DS male mice [2] = experiment: Taming activity (inhibition of fighting responses); type: in vivo; conditions: for times more potent than diazepam, taming activity: relative to diazepam (Compound No. 5)
Description: This test was measured on DS male mice. […] These pairs of mice were selected in the morning and used for drug test in the afternoon. The test compound was administered to both mice of the pairs 60 minutes prior to the experiment. Results were obtained as the mean percentage of inhibition of fighting responses in a group of 5 pairs and shown by ED50 [Tedeschi, et al.: J. Pharmacol Exp. Thev., 125, 28-34 (1959)].

[3] = relative to chlordiazepoxide (Compound No. 4)

SMILES	times more potent than chlordiazepoxide, anti-pentylenetetrazol activity (DS male mice [1]; [3]) [times]	times more potent than chlordiazepoxide, taming activity (DS male mice [2]; [3]) [times]	times more potent than diazepam, anti-pentylenetetrazol activity (DS male mice [1]) [times]	times more potent than diazepam, taming activity (DS male mice [2]) [times]
CN(C(=O)CNC(=O)CN)c1ccc(Cl)cc1C(=O)c1ccccc1 [Compound No. 1, 2-benzoyl-4-chloro-N-methyl-N-glycyl-glycinanilide]	2 to 3	2 to 3	–	–
CN(C(=O)CNC(=O)CN)c1ccc(Cl)cc1C(=O)c1ccccc1Cl.O [Compound No. 2, 2-o-chlorobenzoyl-4-chloro-N-methyl-N^α -glycyl-glycinanilide hydrate]	–	–	2 to 4	2 to 4
CN(C(=O)CNC(=O)CN)c1ccc(Cl)cc1C(=O)c1ccccc1F.Cl [Compound No. 3, 2-o-fluorobenzoyl-4-chloro-N-methyl-N^α -glycyl-glycinanilide hydrochloride]	–	–	2 to 4	2 to 4
